Results are given in words; binding and its absence hold for the method and conditions named. In cells and extracts the contact can be indirect. Some results given as binding are weak or reduced against the parent protein; the word gives no strength.
Tests used:
Test in all cases: co-IP; HT1080 cells co-transfected with hBre1 and E1A-GFP of six HAdV types; NP40 lysis buffer (150 mM NaCl, 50 mM Tris-HCl pH 7.5, 0.1% NP-40); 0.5 mg lysate immunoprecipitated with 1 ug GFP rabbit polyclonal at 4 C for 4 hours; co-precipitated hBre1 detected with hBre1 specific antibody
[1] = biological target: HAdV 12 E1A, tagged at the C-terminus with GFP (human adenovirus 12 (HAdV 12)) (UniProt P03259)
[2] = biological target: HAdV 4 E1A, tagged at the C-terminus with GFP (human adenovirus 4 (HAdV 4)) (UniProt P10407)
[3] = biological target: HAdV 5 E1A, tagged at the C-terminus with GFP (human adenovirus 5 (HAdV 5)) (UniProt P03255)

Amino acid sequences for entries named in this document (tags omitted).
UniProt Q5VTR2: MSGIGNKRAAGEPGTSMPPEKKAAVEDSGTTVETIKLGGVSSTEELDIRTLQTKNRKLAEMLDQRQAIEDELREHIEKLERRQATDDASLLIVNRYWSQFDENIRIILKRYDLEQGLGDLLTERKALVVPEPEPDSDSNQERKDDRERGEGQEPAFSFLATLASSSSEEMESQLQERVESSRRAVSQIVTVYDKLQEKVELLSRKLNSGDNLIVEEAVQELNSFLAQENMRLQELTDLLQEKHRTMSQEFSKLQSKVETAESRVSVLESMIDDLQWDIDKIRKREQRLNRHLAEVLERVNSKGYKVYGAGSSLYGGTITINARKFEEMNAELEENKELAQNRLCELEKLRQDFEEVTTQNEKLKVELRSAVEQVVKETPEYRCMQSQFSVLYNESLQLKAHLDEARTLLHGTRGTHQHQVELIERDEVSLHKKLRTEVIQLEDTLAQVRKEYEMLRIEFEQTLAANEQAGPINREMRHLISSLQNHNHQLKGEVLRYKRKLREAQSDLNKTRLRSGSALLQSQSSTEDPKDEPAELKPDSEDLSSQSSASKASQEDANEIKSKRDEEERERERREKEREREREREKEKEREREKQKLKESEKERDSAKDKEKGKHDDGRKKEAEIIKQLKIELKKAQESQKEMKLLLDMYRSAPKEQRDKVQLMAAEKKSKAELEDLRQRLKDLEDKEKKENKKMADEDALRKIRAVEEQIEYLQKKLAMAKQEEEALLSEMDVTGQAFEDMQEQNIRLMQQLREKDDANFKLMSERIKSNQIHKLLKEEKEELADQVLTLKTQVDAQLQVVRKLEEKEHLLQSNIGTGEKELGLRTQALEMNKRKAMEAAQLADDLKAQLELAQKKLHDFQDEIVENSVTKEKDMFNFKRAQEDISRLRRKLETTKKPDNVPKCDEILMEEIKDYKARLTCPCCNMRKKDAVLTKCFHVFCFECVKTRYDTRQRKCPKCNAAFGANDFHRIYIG

## hBre1 (human BREfeldin A sensitivity)/RNF20 (Ring finger protein 20) (from UniProt Q5VTR2 1-975)
[1]
  binding: no binding
[2]
  binding: binds
[3]
  binding: binds

Reference: paper PMC3681745
